Data set [1] is described as follows: Polarization transfer via intermolecular NOE from optically polarized pentacene:naphthalene dissolved in CDCl3, 1.45 T benchtop NMR.
Data set [2] is described as follows: Thermal NMR: inversion-recovery T1 and steady-state saturation transfer (intermolecular NOE) from naphthalene source in CDCl3. Particulars: for T1 relaxation time: thermal, in CDCl3 with concentrated naphthalene-h8; for normalized cross-relaxation rate σ: from thermal saturation measurements, naphthalene source; for steady-state intermolecular NOE enhancement ε: steady-state saturation transfer from naphthalene.

Turning to `C#CCOC(C)=O` [propargyl acetate], in data set [1], the “1H T1 relaxation time, CH2 resonance” value was “approximately 10 seconds”; the “1H T1 relaxation time, CH3 resonance” value is “approximately 10 seconds”; the “1H T1 relaxation time, CH protons” value was “about 60 s”. In addition, the “polarization corresponding to enhancement (summary)” value in data set [1] (1.45 T) is recorded as not below 0.86%. For the same molecule, in data set [1] (1.45 T, FIG. 18A), the “maximum signal enhancement, CH2 resonance” value is −250±10; the “maximum signal enhancement, CH3 resonance” value is recorded as −360±10; the “polarization corresponding to highest enhancement” value is listed as −1%. In data set [1] (1.45 T, FIG. 18B), the “maximum signal enhancement, CH2 resonance” value is “approximately 260±10”; the “maximum signal enhancement, CH3 resonance” value is recorded as approximately 380±10; the “polarization corresponding to highest enhancement” value is given as “approximately 1%”. In addition, the “highest signal enhancement (CH protons)” value in data set [1] (1.45 T, buildup curves probed by 1 degree flip angles (FIG. 18A), 20% v/v naphthalene, 300 mM in CDCl3) is listed as −1730±60. Moreover, the “highest signal enhancement (CH protons)” value in data set [1] (1.45 T, hyperpolarized spectrum vs averaged 90-degree thermal spectrum (FIG. 18B), buildup 35 to 40 seconds) came out at 1820±60.

For the molecule `c1ccc2ccccc2c1` [naphthalene], the T1 relaxation time result in data set [2] was “greater than 10 s”.

For the molecule `CC(C)=O` [acetone], in data set [2], the “normalized cross-relaxation rate σ” value is recorded as “(3.7±1.5)*10^−3 1/s”, the “steady-state intermolecular NOE enhancement ε” value amounted to 1.05±0.02 and the T1 relaxation time came to 13.5 s.

Take `ClC(Cl)C(Cl)Cl` [TCE, 1,1,2,2-tetrachloroethane]: in data set [2], the “normalized cross-relaxation rate σ” value is on record as “(5.6±0.6)*10^−3 1/s”, the “steady-state intermolecular NOE enhancement ε” value was determined as 1.20±0.02 and the T1 relaxation time was determined as 35.6 s.

(Values after patent US20240361407A1, “SYSTEMS AND METHODS FOR GENERATION OF HYPERPOLARIZED MATERIALS” (priority 2021, published 2024).)
